The target in assay [1] is GST-fusion protein prepared by adding a GST-tag to a binding domain of PAK-1 to an active Rho family protein, conjugated to glutathione agarose (effector bead, UPSTATE) (UniProt Q13153). The assay can be described thus: PAK-1 pull down method, anti-FLAG Western blot (FIG. 2, upper panel).
Assay [2] shares this target. The assay can be described thus: effector pull-down of cell lysate with GST-PAK-1 binding domain on glutathione agarose, anti-FLAG Western blot.

Sequences of proteins named here, by UniProt entry; tags and fusion partners are left off. A change or cut given only in a name is not applied to a line headed by its entry. Residues count along the entry.
UniProt Q13153, residues 67-150: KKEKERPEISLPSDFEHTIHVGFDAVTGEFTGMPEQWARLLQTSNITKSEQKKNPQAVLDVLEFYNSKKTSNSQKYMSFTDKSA
UniProt P60766: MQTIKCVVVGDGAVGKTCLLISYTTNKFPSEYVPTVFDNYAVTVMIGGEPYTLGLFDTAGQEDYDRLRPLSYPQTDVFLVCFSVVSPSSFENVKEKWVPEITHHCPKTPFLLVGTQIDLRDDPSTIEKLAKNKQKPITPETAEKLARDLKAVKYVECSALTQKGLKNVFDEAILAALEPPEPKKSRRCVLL

Our source for the binding values is patent publication US20080274954A1.

No constants are given. Whether binding was seen depends on the method and setting. For some assays here: Binding seen in cells or lysates may run through a third protein. Some entries that bind do so weakly or less than the wild type.

“Cdc42 (SEQ ID NO: 12) expressed as an N-terminal 3x FLAG-tagged protein (from UniProt P60766 1-191)”: the binding result in assay [1] and in assay [2] was “binds” throughout.
